# In all, about 140,000 compounds went through this assay and about 4,300 (3.1%) were called active. The inconclusive results got no clear call from the source; some entries with a clear call stand among them for comparison.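 How the source made its calls: active means readout at or below -70, meaning at least 70% loss of cells showing the perinucleolar compartment, a nuclear body marking cancer cells; inconclusive means readout between -30 and a set limit; inactive means the rest.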
# Experiment: High Content Assay for Compounds that inhibit the Assembly of the Perinucleolar Compartment;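 further: plate controls were DMSO wells for no effect and camptothecin positive control wells for full effect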
# Conditions: PC3M PTB-GFP, PNC prevalence imaging, 16 h; at 10 µM; active compounds read low
# Method in brief: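 Compounds are pinned in duplicate onto adhered PC3M cells stably expressing GFP-tagged PTB and incubated 16 h at 37 C. Cells are then fixed, nuclei stained with Hoechst, and PNC-positive cells counted.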
row,Compound,"activity change (PNC), negative = inhibition"
1,COc1ccc(CNC(=O)C(OC(C)=O)c2ccccn2)cc1 (centres undefined),inconclusive: -49.1%
2,O=C(/C=C/Nc1ccc(F)c(Cl)c1)c1ccco1,inconclusive: -52%
3,c1ccc(Cn2nnnc2C(c2cccs2)N2CCOCC2)cc1 (centres undefined),inconclusive: -35.7%
4,COc1ccc(/C=C(\C#N)C(=O)N2CCOCC2)cc1Br,inactive: 34%
5,CCCCn1c(SCC(=O)NCc2ccco2)nc2cc(S(N)(=O)=O)ccc21,inactive: 27.1%
6,CCOC(=O)c1oc2ccccc2c1NC(=O)COc1cccc(OC)c1,inactive: 77.6%
7,Cc1ccc(NC(=O)NC(=O)CSc2nnc(-c3ccc(OC(F)F)cc3)n2N)c(C)c1,inconclusive: -42%
8,O=S(=O)(NCC(c1ccco1)N1CCOCC1)c1ccc(Cl)cc1 (centres undefined),inactive: -29.3%
9,CC(=O)c1c(O)cc2n(c1=O)-c1ccc(Cl)cc1C2(C)C,inactive: -2.74%
10,O=C(CN1C(=O)c2ccccc2C1=O)Nc1ccc(N2CCOCC2)cc1,inconclusive: -74.5%
11,Cc1nc2c3cc(F)ccc3n(Cc3ccccc3F)c2s1,inconclusive: -42.9%
12,O=S(=O)(/N=C(/Nc1cccc2ccccc12)c1ccccc1)c1cccs1,inconclusive: -45.2%
13,COc1cc(/C=N/S(=O)(=O)CCc2ccccc2)cc(OC)c1O,inconclusive: -34.7%
14,COc1ccc(NC(=O)N2CCCc3ccccc32)cc1,inconclusive: -42%
15,COc1c(Cl)cnn(-c2ccccc2)c1=O,inconclusive: -46.5%
16,CCC/C=N/NC(=O)c1cc(-c2ccccc2)nc2ccccc12,inconclusive: -77%
17,Cc1cc(C)cc(NC2=NCC(=O)N2Cc2ccccc2)c1,inactive: -5.31%
18,O=C(Cn1ncc2c(=O)oc3ccccc3c21)N1CCC(N2CCCCC2)CC1,inconclusive: -52.8%
19,COc1ccc(C2N=C(c3ccccc3)C(C)(C)N2O)cc1OC (centres undefined),inconclusive: -67.8%
20,COc1cc(OC)nc(N/N=C(\c2ccccc2)c2ccncc2)n1,inconclusive: -38.1%
21,COc1ccc(NC(=O)COC(=O)c2ccc(OCc3ccc(Cl)cc3Cl)c(OC)c2)c(OC)c1,inconclusive: -39.8%
22,CC1CN(CC(O)COC(c2ccc(Cl)cc2)c2ccc(Cl)cc2)CC(C)O1 (centres undefined),inconclusive: -34.7%
23,Cc1ccccc1-n1c(SCc2csc(Nc3ccccc3)n2)nnc1-c1cccnc1,inconclusive: -46.1%
24,CC(C)C1Oc2ccccc2N(CC(=O)N(Cc2ccccn2)C2CC2)C1=O (centres undefined),active: -100%

row,Compound,"activity change (PNC), negative = inhibition"
1,COc1ccccc1NC(=O)CSc1nc2nc(C)cc(C)c2c(=O)[nH]1,inactive: -9.46%
2,O=C(NCCCN1CCOCC1)c1ccccc1NS(=O)(=O)c1cc([N+](=O)[O-])ccc1Cl,inactive: 21.7%
3,Oc1ccc(O)c(-c2cnns2)c1,inactive: -19.8%
4,CCN(CC)CCCNC(=O)CN1C(=O)CSc2ccc(S(=O)(=O)N3CCOCC3)cc21,active: -113%
5,CC(NC(=O)CSc1nnc(-c2cc3cc(Cl)ccc3o2)n1C)c1ccccc1 (centres undefined),active: -119%
6,CCCCNC(=S)Nc1ccc2nc3n(c(=O)c2c1)CCCCC3,inactive: 3.91%
7,C=CCSc1n[nH]c(-c2ccc(OC)cc2)n1,inactive: 36.2%
8,N#Cc1c(N)n[nH]c1-c1cc2c([nH]1)CCCC2,active: -100%
9,COC(=O)Nc1c(-c2ccccc2)nc2ccccn12,inconclusive: -38.8%
10,CCCCC(=O)NCCc1cc2ccc(OC)cc2[nH]c1=O,active: -100%
11,CCCCNC(=O)CCCn1c(=S)[nH]c2cc3c(cc2c1=O)OCO3,inconclusive: -57%
12,CCC(Sc1nnnn1-c1ccccc1)C(=O)NC(C)c1ccccc1 (centres undefined),inconclusive: -39.8%
13,CC(C)=CCCC1=CCC2C(=O)NNC(=O)C2C1 (centres undefined),inconclusive: -48.4%
14,Cc1nc(N2CCN(C(=O)c3ccco3)CC2)c2oc3ccccc3c2n1,inactive: -17.2%
15,Nc1ccc(S(=O)(=O)N2CCCC2)cc1,inconclusive: -31.9%
16,COc1ccc(/C=C/C(=O)c2c(O)cc(C)oc2=O)c(OC)c1,inactive: -12.4%
17,O=C(CSC1=NCCS1)N1CCc2ccccc21,inconclusive: -37.6%
18,CC(C)(C)CC(=O)Nc1nn[nH]n1,inconclusive: -58.2%
19,CC(C)c1ccccc1OCCNS(C)(=O)=O,inactive: -21.2%
20,CCc1ccc2c(c1)[C@H]1OCC[C@H]1[C@@H](c1cccs1)N2,active: -109%
21,CC1CCCN(C(=O)Cn2c(-c3nonc3N)nc3ccccc32)C1 (centres undefined),inconclusive: -36.2%
22,Cc1onc(-c2ccccc2Cl)c1C(=O)NCc1ccccn1,inconclusive: -74.2%
23,Cc1cc(NCCCN2CCOCC2)n2c(nc3ccccc32)c1C#N,inconclusive: -41.9%
24,OCCNCc1ccc(-c2ccccc2)cc1,inconclusive: -76.6%

row,Compound,"activity change (PNC), negative = inhibition"
1,CCOC(=O)C(/C(N)=N/C(=O)Nc1ccccc1)=C(\C)O,inconclusive: -47.6%
2,CCOC(=O)Nc1ccc(S(=O)(=O)Nc2cc(C)on2)cc1,inconclusive: -56.3%
3,O=C(COC(=O)c1cccc(S(=O)(=O)N2CCc3ccccc32)c1)Nc1ccc(Cl)cn1,inconclusive: -32.1%
4,O=[N+]([O-])c1ccc(O)c(/C=N/Nc2ccccn2)c1,inactive: 44.7%
5,CCOC(=O)CCCCC(=O)c1[nH]c(=O)[nH]c1CSCCO,inactive: -6.12%
6,CCC(C)c1ccc(NC(=O)COc2c(F)c(F)c(C(F)(F)F)c(F)c2F)cc1 (centres undefined),inconclusive: -40.3%
7,COc1ccc(C(=O)NNC(=O)CN2CCC(n3nnc4cc(C)ccc43)CC2)cc1,inconclusive: -59.6%
8,Fc1cccc(/C=N/Nc2ncnc3nc[nH]c23)c1,inconclusive: -78.8%
9,CS(=O)(=O)N1CCN(c2ccc(NC(=O)c3ccc(Br)o3)cc2)CC1,inconclusive: -55.3%
10,CCSc1ncnc2c1sc1nc(-c3ccco3)c3c(c12)CC(C)(C)OC3,inconclusive: -37.4%
11,Cc1c(Cc2ccccc2)sc(NC(=O)c2ccco2)c1C(N)=O,active: -111%
12,O/N=C(/Cc1ccccn1)c1ccccc1,inconclusive: -39%
13,CC1=C(C(=O)N(C)C)C(c2cccs2)NC(=O)N1 (centres undefined),inconclusive: -39.7%
14,CCOC(=O)CSCC(=O)Nc1c(C(=O)C2CC2)oc2ccccc12,inconclusive: -48.3%
15,CCN1CCCC1CN(Cc1cc2ccc(C)cc2[nH]c1=O)C(=S)Nc1cccc(OC)c1 (centres undefined),inconclusive: -55.8%
16,CCO/N=C(\C)c1c(O)c(CC)c(-c2ccccc2)n(-c2ccccc2)c1=O,inactive: -5.86%
17,Cc1cc(NC(=O)CSc2nc3c(sc4ccccc43)c(=O)n2CCCN2CCOCC2)n[nH]1,active: -82.6%
18,CCOC(=O)c1cc(-c2ccccc2)n(CCC(=O)N2CCN(c3ccccn3)CC2)c1C,inconclusive: -42.5%
19,O=C(c1cccs1)N1CCc2ccccc21,inconclusive: -42%
20,CC(C)NC(=O)CSc1nnc2sc3ccccc3n12,inconclusive: -44.9%
21,COC(=O)NC1(C(F)(F)F)C(=O)NC(C)=C1C(=O)OC (centres undefined),active: -107%
22,CC(C)(C)NC(=O)NC(=O)COC(=O)c1nc(-c2ccccc2)n(-c2cccc(C(F)(F)F)c2)n1,active: -112%
23,Cc1c(-c2ccccc2)nc2ccccc2c1C(=O)O,inactive: 50.1%
24,CC1CN(C(=O)c2c([N+](=O)[O-])cnn2C)CC(C)O1 (centres undefined),inconclusive: -57.1%

# Filtered by structure, the entries above with four or more nitrogen atoms.
row,Compound,"activity change (PNC), negative = inhibition"
3,c1ccc(Cn2nnnc2C(c2cccs2)N2CCOCC2)cc1 (centres undefined),inconclusive: -35.7%
5,CCCCn1c(SCC(=O)NCc2ccco2)nc2cc(S(N)(=O)=O)ccc21,inactive: 27.1%
7,Cc1ccc(NC(=O)NC(=O)CSc2nnc(-c3ccc(OC(F)F)cc3)n2N)c(C)c1,inconclusive: -42%
18,O=C(Cn1ncc2c(=O)oc3ccccc3c21)N1CCC(N2CCCCC2)CC1,inconclusive: -52.8%
20,COc1cc(OC)nc(N/N=C(\c2ccccc2)c2ccncc2)n1,inconclusive: -38.1%
23,Cc1ccccc1-n1c(SCc2csc(Nc3ccccc3)n2)nnc1-c1cccnc1,inconclusive: -46.1%
1,COc1ccccc1NC(=O)CSc1nc2nc(C)cc(C)c2c(=O)[nH]1,inactive: -9.46%
2,O=C(NCCCN1CCOCC1)c1ccccc1NS(=O)(=O)c1cc([N+](=O)[O-])ccc1Cl,inactive: 21.7%
4,CCN(CC)CCCNC(=O)CN1C(=O)CSc2ccc(S(=O)(=O)N3CCOCC3)cc21,active: -113%
5,CC(NC(=O)CSc1nnc(-c2cc3cc(Cl)ccc3o2)n1C)c1ccccc1 (centres undefined),active: -119%
6,CCCCNC(=S)Nc1ccc2nc3n(c(=O)c2c1)CCCCC3,inactive: 3.91%
8,N#Cc1c(N)n[nH]c1-c1cc2c([nH]1)CCCC2,active: -100%
12,CCC(Sc1nnnn1-c1ccccc1)C(=O)NC(C)c1ccccc1 (centres undefined),inconclusive: -39.8%
14,Cc1nc(N2CCN(C(=O)c3ccco3)CC2)c2oc3ccccc3c2n1,inactive: -17.2%
18,CC(C)(C)CC(=O)Nc1nn[nH]n1,inconclusive: -58.2%
21,CC1CCCN(C(=O)Cn2c(-c3nonc3N)nc3ccccc32)C1 (centres undefined),inconclusive: -36.2%
23,Cc1cc(NCCCN2CCOCC2)n2c(nc3ccccc32)c1C#N,inconclusive: -41.9%
4,O=[N+]([O-])c1ccc(O)c(/C=N/Nc2ccccn2)c1,inactive: 44.7%
7,COc1ccc(C(=O)NNC(=O)CN2CCC(n3nnc4cc(C)ccc43)CC2)cc1,inconclusive: -59.6%
8,Fc1cccc(/C=N/Nc2ncnc3nc[nH]c23)c1,inconclusive: -78.8%
15,CCN1CCCC1CN(Cc1cc2ccc(C)cc2[nH]c1=O)C(=S)Nc1cccc(OC)c1 (centres undefined),inconclusive: -55.8%
17,Cc1cc(NC(=O)CSc2nc3c(sc4ccccc43)c(=O)n2CCCN2CCOCC2)n[nH]1,active: -82.6%
18,CCOC(=O)c1cc(-c2ccccc2)n(CCC(=O)N2CCN(c3ccccn3)CC2)c1C,inconclusive: -42.5%
20,CC(C)NC(=O)CSc1nnc2sc3ccccc3n12,inconclusive: -44.9%
22,CC(C)(C)NC(=O)NC(=O)COC(=O)c1nc(-c2ccccc2)n(-c2cccc(C(F)(F)F)c2)n1,active: -112%
24,CC1CN(C(=O)c2c([N+](=O)[O-])cnn2C)CC(C)O1 (centres undefined),inconclusive: -57.1%

# (more compounds)

row,Compound,"activity change (PNC), negative = inhibition"
1,O=C(NCCC1=CCCCC1)C1CCCN(S(=O)(=O)c2ccc(F)cc2)C1 (centres undefined),inconclusive: -38.8%
2,Cc1cc(C)c2nc(N3CCCC3)c(C#N)cc2c1,inconclusive: -31%
3,O=C1CSc2ccccc2N1Cc1ccccc1F,inconclusive: -36.8%
4,Cc1cccc(-c2noc(-c3ccccc3C(=O)NCC3CCCO3)n2)c1 (centres undefined),inactive: 50.4%
5,Cc1nc2c(c3c1[nH]c1ccccc13)C(=O)CC(C)(C)C2,inactive: -1.9%
6,O=C(O)/C=C\C(=O)NC1CCCCC1,inactive: -28.5%
7,Cc1cccn2c(=O)c(C=Nc3ccc(Cl)cc3)c(NCCO)nc12,active: -100%
8,C/C(=N\N=C(/N)SC1CC(=O)N(c2ccc(Cl)cc2)C1=O)c1cccs1 (centres undefined),inconclusive: -46.6%
9,Cc1cc(C)nc(Nc2ncc(O)n2-c2ccc(C)c(Cl)c2)n1,inconclusive: -40.7%
10,CC1NC(=O)NC1CCCCCC(=O)NCCc1ccccc1 (centres undefined),inconclusive: -62.6%
11,COc1ccccc1N1CCN(C(=O)c2c(C)cc(=O)oc2C)CC1,inconclusive: -74.2%
12,CC(=S)c1c(C)cc2cc(C)ccn12,inactive: 20.6%
13,Cc1ccc(C(C(=O)NC2CCCC2)N(C(=O)Cc2cccs2)c2cccc(C)c2C)o1 (centres undefined),inconclusive: -71.7%
14,NC(=O)C1c2ccccc2CSc2ccccc21 (centres undefined),inactive: 17.3%
15,CC(=O)N1CCN=C1SCc1ccccc1,inactive: 0.787%
16,NC(=O)C1CCN(C(=O)CCc2nc3ccccc3c(=O)[nH]2)CC1,inconclusive: -34.1%
17,CC(C)(C)NS(=O)(=O)c1ccc(NS(=O)(=O)Cc2ccccc2)cc1,inconclusive: -40.7%
18,CCCC1OC23CCCCC2C(C#N)(C(=N)O3)C1(C#N)C#N (centres undefined),inactive: -10.4%
19,CC(c1ccccc1)C1CC(=O)N(CC(=O)O)C1=O (centres undefined),inconclusive: -65.6%
20,CC12CCC(c3c(C(=O)Nc4nccs4)nn(-c4ccccc4)c31)C2(C)C (centres undefined),inactive: 16.5%
21,CCc1ccc(NC2=NCC(=O)N2c2ccc3c(c2)OCCO3)cc1,inconclusive: -30%
22,COC(=O)c1[nH]c2ccc(C)cc2c1NC(=O)CN1CCC(C)CC1,inconclusive: -37.4%

# Reference: PubChem BioAssay AID2417 (National Center for Advancing Translational Sciences (NCATS), 2010)
